Data from patent US20080096981A1, “Antibodies against inducible TH2 cell factors” (Genaera Corporation, priority 1999, published 2008).
For at least one compound, name, drawing or mass did not settle the structure.

Key:
[1] = system: TH2AF1; experiment: TH2AF1 RNA expression (Northern blot) in lung of DBA/2 mice treated with aminosterols; type: in vivo, mouse; settings: 10 mg/kg intraperitoneally daily for fifteen days, FIG. 8
[2] = system: asthmatic-like responses to antigen; experiment: Asthmatic-like responses to antigen in the DBA/2 mouse model; type: in vivo

`C[C@@H]1C[C@H]2[C@@H]3CCC4=CC(=O)C=C[C@]4(C)[C@@]3(F)[C@@H](O)C[C@]2(C)[C@@]1(O)C(=O)CO` [dexamethasone] was tested, and the “expression of TH2AF1 in the lung of treated mice (steady-state RNA, Northern blot)” value [1] was “in contrast” and the “suppressing asthmatic-like responses to antigen” value [2] was “minimal effects”.
